Test [1] deals with T1, cYFP-POT1a (N. benthamiana) (Arabidopsis thaliana) (UniProt Q56Y52).
T1 sequence: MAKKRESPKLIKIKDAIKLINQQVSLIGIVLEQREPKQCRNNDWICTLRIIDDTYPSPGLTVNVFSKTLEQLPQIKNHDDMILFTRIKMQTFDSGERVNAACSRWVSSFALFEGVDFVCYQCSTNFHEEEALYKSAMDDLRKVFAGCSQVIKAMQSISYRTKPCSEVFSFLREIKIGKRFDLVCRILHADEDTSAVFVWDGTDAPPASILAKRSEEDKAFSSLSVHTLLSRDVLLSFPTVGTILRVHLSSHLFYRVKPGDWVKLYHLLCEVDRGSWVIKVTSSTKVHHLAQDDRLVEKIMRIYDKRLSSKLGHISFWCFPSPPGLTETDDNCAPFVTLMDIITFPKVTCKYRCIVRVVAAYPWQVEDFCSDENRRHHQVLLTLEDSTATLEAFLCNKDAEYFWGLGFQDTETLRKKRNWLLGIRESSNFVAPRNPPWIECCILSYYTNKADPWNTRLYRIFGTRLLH
The experiment in a line: split reporter; BiFC, nYFP/cYFP constructs (pE-SPYNE-GW, pE-SPYCE-GW, pC-SPYNE-GW) transiently expressed in N. benthamiana leaves, confocal microscopy after 3 days.

The target of test [2] is T2, AtTERT TEN construct (1-233 aa) (Arabidopsis thaliana) (UniProt Q9SPU7).
T2 sequence: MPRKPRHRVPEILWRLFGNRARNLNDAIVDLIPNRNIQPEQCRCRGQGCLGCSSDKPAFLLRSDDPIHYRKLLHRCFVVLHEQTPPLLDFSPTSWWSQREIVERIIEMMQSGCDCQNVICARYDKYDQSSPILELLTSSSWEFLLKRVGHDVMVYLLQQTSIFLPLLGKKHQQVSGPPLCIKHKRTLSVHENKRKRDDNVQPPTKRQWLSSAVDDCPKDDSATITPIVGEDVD
The experiment in a line: two-hybrid; Matchmaker GAL4 system, pGADT7-DEST/pGBKT7-DEST, S. cerevisiae PJ69-4α, 30 °C; growth on -LWH plates (with increasing 3-aminotriazol) and -LWHAde plates.

For test [3], the target named is T3, AtTERT RID construct (1-271 aa) (Arabidopsis thaliana) (UniProt Q9SPU7).
T3 sequence: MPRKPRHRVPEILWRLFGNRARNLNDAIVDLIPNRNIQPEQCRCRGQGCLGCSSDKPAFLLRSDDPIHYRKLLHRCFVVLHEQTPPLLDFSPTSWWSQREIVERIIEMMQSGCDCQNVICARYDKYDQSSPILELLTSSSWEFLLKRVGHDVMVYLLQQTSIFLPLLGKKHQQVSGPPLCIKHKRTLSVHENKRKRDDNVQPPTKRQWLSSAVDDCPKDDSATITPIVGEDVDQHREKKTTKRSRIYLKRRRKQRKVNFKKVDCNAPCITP
Described as above.

Test [4] has as its target T4, POT1a (Arabidopsis thaliana) (UniProt Q56Y52).
T4 sequence: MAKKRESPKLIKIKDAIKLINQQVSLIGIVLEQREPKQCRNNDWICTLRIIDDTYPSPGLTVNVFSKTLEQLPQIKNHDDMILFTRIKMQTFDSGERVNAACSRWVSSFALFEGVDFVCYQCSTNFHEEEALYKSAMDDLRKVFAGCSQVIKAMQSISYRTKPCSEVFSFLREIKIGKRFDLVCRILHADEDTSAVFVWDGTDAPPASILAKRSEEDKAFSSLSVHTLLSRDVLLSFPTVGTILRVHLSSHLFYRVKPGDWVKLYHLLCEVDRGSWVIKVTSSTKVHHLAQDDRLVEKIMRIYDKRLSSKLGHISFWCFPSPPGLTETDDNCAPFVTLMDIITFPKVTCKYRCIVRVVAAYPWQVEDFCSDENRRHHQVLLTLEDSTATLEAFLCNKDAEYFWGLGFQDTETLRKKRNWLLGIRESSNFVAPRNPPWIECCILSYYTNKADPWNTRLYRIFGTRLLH
Described as above.

These are yes or no findings as the source states them, for the method shown. For some of these results: In cells and extracts the contact can be indirect. Some entries that bind do so weakly or less than the wild type. For some of these results: Sequences can lack the tags named with a protein.

B1: RAD23-4 BiFC construct (protein, UniProt Q84L30 1-378)
chain: MKIFVKTLSGSNFEIEVKPADKVSDVKTAIETVKGAEYPAAKQMLIHQGKVLKDETTLEENNVVENSFIVIMLSKTKASPSGASTASAPAPSATQPQTVATPQVSAPTASVPVPTSGTATAAAPATAASVQTDVYGQAASNLVAGTTLESTVQQILDMGGGSWDRDTVVRALRAAFNNPERAVEYLYSGIPAQAEIPPVAQAPATGEQAANPLAQPQQAAAPAAATGGPNANPLNLFPQGMPAADAGAGAGNLDFLRNSQQFQALRAMVQANPQILQPMLQELGKQNPQLVRLIQEHQADFLRLINEPVEGEENVMEQLEAAMPQAVTVTPEEREAIERLEGMGFDRAMVLEVFFACNKNEELAANYLLDHMHEFEDQ
As for B1, the binding entry in test [1] is given as “binds”.

B2: ImpA6 (protein, UniProt Q9FWY7 1-538)
chain: MSYKPSAKTEVRRNRYKVSVDADEGRRRREDNMVEIRKNKREENLQKKRREGFNPSMASQPGQDFSSSLPTETRLENIQQMIAGVMSEDRDLQLEATASFRRLLSIERNPPINEVVQSGVVPHIVQFLSRDDFTQLQFEAAWALTNIASGTSENTRVIIDSGAVPLFVKLLSSASEEVREQAVWALGNVAGDSPKCRDHVLSCEAMMSLLAQFHEHSKLSMLRNATWTLSNFCRGKPQPAFEQTKAALPALERLLHSTDEEVLTDASWALSYLSDGTNEKIQTVIDAGVIPRLVQLLAHPSPSVLIPALRTIGNIVTGDDIQTQAVISSQALPGLLNLLKNTYKKSIKKEACWTISNITAGNTSQIQEVFQAGIIRPLINLLEIGEFEIKKEAVWAISNATSGGNHDQIKFLVSQGCIRPLCDLLPCPDPRVVTVTLEGLENILKVGEAEKNLGNTGNDNLYAQMIEDADGLDKIENLQSHDNNEIYEKAVKILESYWAADDEEEDIGGVDAPENVQSSGFQFGNQSGNAPTGGFNFG
As to B2, the binding entry in test [2] and in test [3] was “binds” in each case.

B3: nYFP-RPA3 (protein, UniProt Q6NLG7 1-106)
chain: MDTSSPAAFVNGALLRRYIGQKVRAVIQVIRSDVGSVIGKSTDDQQIVVKGSPQPPLTTYLEVIGIAETDNTIRAEVWTNFGDSFDVQNYNELCKLANGEFRHLFI
In the case of B3, the binding result in test [1] is “no binding”.

B4: AT3G59020 protein, a member of the importin beta family (protein, UniProt F4J738 1-1030)
chain: MDLPSLALIVGAAAFSPNPDERRAAEQSLNQLQHTPQHLIRILQIIVDGGSDLSVRQSASIHFKNFIAKHWEPHSGDQNIILPSDKNVVRNQILVFVSQVPPILRVQMGECLKTIIYADYPEQWPELLDWVKQNLQKPQVYGALFVLRILSSKYEFKSDEDRAPIHRVVEETFPHLLNIFNNLVHVENPSLEVADHIKLICKIFWSCIYLELPRPLFDPNFFNAWMGLFLNILERPVPVEGQPEDPELRKSWGWWKAKKWIAHILNRLYTRFGDLKLQNPDNKAFAQMFQINYAAKILECHLKLLNAIRIGGYLPDRVINLILQYLSNSISKSSMYNLLQPHLNTLLFEIVFPLMCFNDNDQMLWDEDPHEYVRKGYDIIEDLYSPRTASMDFVTELVRKRGKENFPKFIQFVVDIFKRYNEASLENKPYRLKDGALLAVGTLCDKLRQTEPYKSELENMLVQHVFPEFSSPAGHLRAKAAWVAGQYANIDFSDQSNFSKALHCVISGMCDLELPVRVDSVFALRSFIEACKDLDEIRPVLPQLLDEFFKLMKEVENEDLAFTLETIVYKFGEEISPYALGLCQNLASAFWRCIDTDNGDDETDDAGALAAVGCLRAISTILESISSLPHLYGQIEPQLLPIMRKMLTTDGQDVFEEVLEIVSYITTFSPTISLEMWSLWPLMMEALVDWAIDFFPNILVPLHNYISRGTGHYLTCKEPDYQQNLWNVISVLMANKNIDDSDLEPAPKLLGIVLQTCKGQVDQWVEPYLRITLDRLRGAEKSSFKCLLVEVVANAFYYNTPLALGILQRFGIATEIFTLWFQMLQEKKKSGARSNFKREHDKKVCILGLTSLFSLPAGQLPGEVLPHVFRALLELLVAYKDQLAEAAKAEEEEEDEDGDDDDMDEFQTDDEDEDGDDENPDETDGSTLRKLAAQAKDFRSYSDDDDFSDDDFSDDEELESPIDEVDPFVLFMDAVTAMQVSDSPRFQSLTQTLDPHYHGLASTIAQHTELRRAEILKEKLEKQSSATVAS
For the molecule B4, the binding entry in test [3] is on record as “binds weakly”.

B5: HSP90-7 (protein, UniProt Q9STX5 1-823)
chain: MRKRTLVSVLFLFSLLFLLPDQGRKLHANAEESSDDVTDPPKVEEKIGGHGGLSTDSDVVHRESESMSKKTLRSNAEKFEFQAEVSRLMDIIINSLYSNKDIFLRELISNASDALDKIRFLALTDKDVLGEGDTAKLEIQIKLDKAKKILSIRDRGIGMTKEDLIKNLGTIAKSGTSAFVEKMQSSGDLNLIGQFGVGFYSAYLVADYIEVISKHNDDSQYVWESKANGKFAVSEDTWNEPLGRGTEIRLHLRDEAGEYLEESKLKELVKRYSEFINFPISLWASKEVETEVPVEEDESADEETETTSTEEEKEEDAEEEDGEKKQKTKKVKETVYEWELLNDVKAIWLRSPKEVTEEEYTKFYHSLSKDFTDEKPMAWSHFNAEGDVEFKAVLYVPPKAPHDLYESYYNSNKANLKLYVRRVFISDEFDELLPKYLSFLKGLVDSDTLPLNVSREMLQQHSSLKTIKKKLIRKALDMIRKLAEEDPDEIHDDEKKDVEKSGENDEKKGQYTKFWNEFGKSVKLGIIEDAANRNRLAKLLRFETTKSDGKLTSLDQYIKRMKKSQKDIFYITGSSKEQLEKSPFLERLIKKGYEVIFFTDPVDEYLMQYLMDYEDKKFQNVSKEGLKVGKDSKDKELKEAFKELTKWWKGNLASENVDDVKISNRLADTPCVVVTSKFGWSANMERIMQSQTLSDANKQAYMRGKRVLEINPRHPIIKELKDRIASDPEDESVKETAQLMYQTALIESGFILTDPKDFAARIYNSVKSGLNISPDAVADEEIEAAEEPETSEATETKSDDLAGGLNIEAEPVEQQEENTKDEL
In the case of B5, the binding result in test [4] and in test [3] was “binds” throughout.

B6: p23-like chaperone AT4G02450, BiFC construct (protein, UniProt Q8L7U4 1-241)
chain: MSRHPEVKWAETTEKIFLTVVLADTKDTKVNLDPEGVFDFSAKVGPENHVYELKLELADKVNVEESKINIGERSIFCIIEKAEPERWNKLLRVKKPPHYVKVDWDKWVDEDDEGSAGAADMDMAGMEGMGGMGGMGGMGGMGGMGGMGGMGGMEGMDFSKLMGGMGGMGGMGGLEGLGGMGGMGGMGGMGGMGGMEEFEDSDDEEETAKSGDKKDDAVKEEGLATEKAPAAEETTSVKEDK
B6: the binding result in test [1] is “no binding”.

B7: RH38 (protein, UniProt Q93ZG7 1-496)
chain: MADTVEKVPTVVESSSSSTVEASNSAEKTEPTTEKKKWGDVEDDDDEEEAVSELNSLSIKEEEKPDSILEEPEDSNIKAVTSGDTPYTSASRFEDLNLSPELMKGLYVEMKFEKPSKIQAISLPMIMTPPHKHLIAQAHNGSGKTTCFVLGMLSRVDPTLREPQALCICPTRELANQNMEVLQKMGKFTGITAELAVPDSTRGAPAATRGAPVSAHVVIGTPGTLKKWMAFKRLGLNHLKILVFDEADHMLATDGFRDDSLKIMKDIGRVNPNFQVLLFSATFNETVKDFVARTVKDPNQLFVKREDLALDSVKQYKVVCPKEQNKIEVIKDQIMELGDIGQTIIFVKTKASAQKVHKALAEMGYDVTSVHGNLTESDRDKIVKEFKECLTQVLIATDVIARGFDQQRVNLVVNYNLPTKYETGEPDYEVYLHRVGRAGRFGRKGAVFNLLLDDGWDKEVMEKIEKYFEANVKEIKSWNSEEEYKSALKEAGLLDE
With B7, in test [3], the binding entry is listed as “no binding”.

B8: RAD23-3 BiFC construct (protein, UniProt Q84L31 1-419)
chain: MKIFVKTLKGTHFEIEVKPEDSVVDVKKNIESVQGADVYPAAKQMLIHQGKVLKDETTIEENKVAENSFIVIMMNKSKPASAAASSASAGTSQAKSIPPSTSQPSISPQTPASVSAPVAPAPTRPPPPAPTPTPAPVAATETVTTPIPEPVPATISSSTPAPDSAPVGSQGDVYGQAASNLAAGSNLESTIQQILDMGGGTWDRETVVLALRAAFNNPERAVEYLYTGIPEQAEVPPVARPPASAGQPANPPAQTQQPAAAPASGPNANPLDLFPQGLPNVGGNPGAGTLDFLRNSQQFQALRAMVQANPQVLQPMLQELGKQNPNLMRLIQDHQADFLRLINEPVEGGGESGNLLGQMAAGMPQPQAIQVTHEEREAIERLEAMGFERALVLEVFFACNKNEELAANYLLDHMHEFEE
In the case of B8, the binding entry in test [1] is on record as “binds”.

The values are drawn from article PMC8745574.
